Measurements published in PubChem BioAssay AID248 (DTP/NCI, 2004).
The list is a part of this screen's results and no random one: it gathers tests that were run many times, whatever their T/C, doses with no T/C, and many T/C values between a quarter and a half above the control. Further doses and runs are listed elsewhere. T/C gives the treated animals as a percentage of the vehicle group. Some entries give survivors of the animals treated and no T/C: the source files T/C as zero there, which appears to mark a toxic dose or a test without result, not a measured value. Some doses without a T/C left all or most animals alive at the check, yet need not have been tolerated: survival well below the control is almost never listed, so the zero probably covers shortened survival too. Counts of survivors are from the toxicity check (mostly the fifth day) where no day follows; animals may have died later. Schedule codes are those of the source, read here as Q, the interval in days (D) or hours (H), X, the number of doses. Marks such as (2×) count equal records among those shown. Some schedule codes hold Z or #, which are not explained here. For survival time, the PubChem record calls one and a half times the control and up active, and a quarter to a half above the control has no call in these data; cut-offs in other NCI protocols can differ. Some T/C values carry the count of animals alive at the toxicity check (mostly the fifth day); without a count, all were alive then.

System: L1210 leukemia ip in BDF1 mice, survival T/C
Assay: NCI In Vivo Anticancer Drug Screen. Data for tumor model L1210 Leukemia (intraperitoneal) in B6D2F1 (BDF1) mice
Details: T/C endpoint: mean survival time, higher T/C = longer survival
[1] = dose: 100.0 mg/kg/injection, schedule: Q01DX009 (ip), vehicle: saline with Tween-80
[2] = dose: 400.0 mg/kg/injection, schedule: Q04DX003 (ip), vehicle: saline
[3] = dose: 300.0 mg/kg/injection, schedule: Q01DX001 (ip), vehicle: saline
[4] = dose: 400.0 mg/kg/injection, schedule: Q04DX003 (ip), vehicle: saline with Tween-80
[5] = dose: 100.0 mg/kg/injection, schedule: Q04DX003 (ip), vehicle: saline with Tween-80
[6] = dose: 100.0 mg/kg/injection, schedule: Q04DX003 (ip), vehicle: saline
[7] = dose: 200.0 mg/kg/injection, schedule: Q01DX009 (ip), vehicle: Klucel (hydroxypropylcellulose) (HPC)

CS/C(N)=N/N=C(\N)SC
survivor count [1]: 2 of 6
survivor count (dose: 200.0 mg/kg/injection, schedule: Q01DX001 (ip), vehicle: saline with Tween-80): 2 of 6
survivor count (dose: 400.0 mg/kg/injection, schedule: Q01DX001 (ip), vehicle: saline with Tween-80): 0 of 6

C[N+](C)(C)CCCOC(=O)C1C2CC3OC(=O)C1C3C2 (stereo not drawn)
survivor count [2]: 1 of 3

O=[N+]([O-])c1ccc(NN=C2c3ccccc3Cc3ccccc32)c([N+](=O)[O-])c1
survivor count (dose: 200.0 mg/kg/injection, schedule: Q04DX002 (ip), vehicle: saline with Tween-80): 3 of 3

CON(C)CCO
survivor count (dose: 400.0 mg/kg/injection, schedule: Q01DX001 (ip), vehicle: Klucel (hydroxypropylcellulose) (HPC)): 2 of 3

Fc1cc(F)c2ncccc2c1
T/C (dose: 75.0 mg/kg/injection, schedule: Q01DX001 (ip), vehicle: saline): 126 % of control
survivor count (dose: 150.0 mg/kg/injection, schedule: Q01DX001 (ip), vehicle: saline): 0 of 6
survivor count (dose: 300.0 mg/kg/injection, schedule: Q01DX001 (ip), vehicle: carboxymethylcellulose (CMC)): 1 of 6
survivor count [3]: 0 of 6

COC(OC)c1cc(=O)n(C)c(=O)[nH]1
survivor count [1]: 6 of 6

CN(CCO)/N=N/c1nc[nH]c1C(N)=O
T/C (dose: 200.0 mg/kg/injection, schedule: Q01DX009 (ip), vehicle: carboxymethylcellulose (CMC)): 148 % of control
T/C (dose: 600.0 mg/kg/injection, schedule: Q01DX009 (ip), vehicle: carboxymethylcellulose (CMC)): 142 % of control [4 of 6 alive]

CC(=O)Oc1ccc(Cl)cc1Cl
survivor count [4]: 2 of 6

C/C=C(/C)C(=O)O[C@H]1CCN2CC=C(COC(=O)[C@@](O)([C@H](C)OC)C(C)(C)O)[C@H]12
survivor count (dose: 100.0 mg/kg/injection, schedule: Q01DX001 (ip), vehicle: other): 2 of 6
survivor count (dose: 200.0 mg/kg/injection, schedule: Q01DX001 (ip), vehicle: other): 0 of 6
survivor count (dose: 400.0 mg/kg/injection, schedule: Q01DX001 (ip), vehicle: other): 0 of 6

Nc1nc(NCCCc2ccccc2)cc(=O)[nH]1
survivor count [5]: 3 of 6

Nc1ccnc(=S)[nH]1
survivor count (dose: 500.0 mg/kg/injection, schedule: Q01DX Z (ip), vehicle: methylcellulose (MC)): 0 of 6

O=[N+]([O-])CC(OCCO)C(Cl)(Cl)Cl (stereo not drawn)
survivor count (dose: 100.0 mg/kg/injection, schedule: Q04DX003 (ip), vehicle: acetone): 0 of 6
survivor count (dose: 200.0 mg/kg/injection, schedule: Q04DX003 (ip), vehicle: acetone): 0 of 6
survivor count (dose: 400.0 mg/kg/injection, schedule: Q04DX003 (ip), vehicle: acetone): 0 of 6

CC(C)CCCCCCCCCCCCC(=O)NCC(=O)NC1C(O)C(O)C(Nc2ncnc3nc[nH]c23)OC1C(O)CO (stereo not drawn)
survivor count (dose: 40.0 mg/kg/injection, schedule: Q01DX001 (ip), vehicle: saline): 1 of 4

C1=C(c2ccccc2)[P+](c2ccccc2)(c2ccccc2)C=C(c2ccccc2)[P+]1(c1ccccc1)c1ccccc1
survivor count (dose: 50.0 mg/kg/injection, schedule: Q01DX009 (ip), vehicle: saline): 3 of 6
survivor count [6]: 0 of 6
survivor count (dose: 200.0 mg/kg/injection, schedule: Q04DX003 (ip), vehicle: saline): 0 of 6
survivor count [2]: 0 of 6

CC(=O)Oc1c2c(c(CC=C(C)C)c3c1C(=O)C1=CC4CC5C(C)(C)OC(C/C=C(/C)C(=O)O)(C4=O)C15O3)OC(C)(CCC=C(C)C)C=C2 (stereo not drawn)
survivor count [7]: 1 of 6

CCCC(CN)(CCN1CCOCC1)c1cccc2ccccc12 (stereo not drawn)
survivor count [2]: 5 of 6

[N-]=[N+]=NC(=O)C1C2CC3C(C2)C31 (stereo not drawn)
survivor count (dose: 400.0 mg/kg/injection, schedule: Q01DX001 (ip), vehicle: carboxymethylcellulose (CMC)): 4 of 4

CC(=O)C(CCC#N)(CCC#N)CCC#N
survivor count [6]: 6 of 6

N#Cc1cc(Cl)cn1O
survivor count (dose: 400.0 mg/kg/injection, schedule: Q04DX002 (ip), vehicle: other): 1 of 3

O=C(Cc1cccc2ccccc12)N/N=C/c1ccc(Cl)cc1Cl
survivor count (dose: 400.0 mg/kg/injection, schedule: Q01DX009 (ip), vehicle: saline with Tween-80): 6 of 6

CC1(C)C(=O)NC(=O)C1(C)C
survivor count (dose: 25.0 mg/kg/injection, schedule: Q03HX024 (ip), vehicle: saline): 0 of 6
survivor count (dose: 100.0 mg/kg/injection, schedule: Q01DX009 (ip), vehicle: saline): 0 of 6
survivor count (dose: 132.0 mg/kg/injection, schedule: Q01DX009 (ip), vehicle: saline): 0 of 6
survivor count (dose: 264.0 mg/kg/injection, schedule: Q01DX009 (ip), vehicle: saline): 0 of 6
survivor count [3]: 0 of 6

COc1ccccc1[As](=O)(O)CC(O)COc1ccccc1 (stereo not drawn)
survivor count (dose: 50.0 mg/kg/injection, schedule: Q04DX003 (ip), vehicle: saline with Tween-80): 5 of 6
survivor count [5]: 0 of 6 (2×)
survivor count (dose: 200.0 mg/kg/injection, schedule: Q04DX003 (ip), vehicle: saline with Tween-80): 0 of 6
survivor count [4]: 0 of 6

O=[N+]([O-])c1ccc(/C=N\Nc2ccccn2)s1
survivor count [4]: 3 of 6

O=C1C=CC(=O)N1
survivor count (dose: 5.0 mg/kg/injection, schedule: Q04DX003 (ip), vehicle: saline): 3 of 6
survivor count (dose: 5.68 mg/kg/injection, schedule: Q01DX009 (ip), vehicle: saline with Tween-80): 2 of 6
survivor count (dose: 8.52 mg/kg/injection, schedule: Q01DX009 (ip), vehicle: saline with Tween-80): 0 of 6
survivor count (dose: 10.0 mg/kg/injection, schedule: Q01DX001 (ip), vehicle: acetone): 1 of 6
survivor count (dose: 20.0 mg/kg/injection, schedule: Q01DX001 (ip), vehicle: acetone): 0 of 6

NC(=O)OCc1c(O)c2c(c(O)c1COC(N)=O)C(=O)C=CC2=O
survivor count (dose: 200.0 mg/kg/injection, schedule: Q01DX009 (ip), vehicle: water): 2 of 6
survivor count (dose: 400.0 mg/kg/injection, schedule: Q01DX009 (ip), vehicle: water): 0 of 6

CCNCC(=O)N(N=O)C(=O)OCC
survivor count (dose: 300.0 mg/kg/injection, schedule: Q01DX001 (ip), vehicle: steroid suspending solution): 6 of 6

Cc1cc(C)c(NC(N)=S)cc1C
survivor count (dose: 400.0 mg/kg/injection, schedule: Q04DX002 (ip), vehicle: Klucel (hydroxypropylcellulose) (HPC)): 3 of 3

Nc1nc(N)c2c(no[n+]2[O-])n1
survivor count (dose: 150.0 mg/kg/injection, schedule: Q01DX001 (ip), vehicle: other): 2 of 6
survivor count (dose: 300.0 mg/kg/injection, schedule: Q01DX001 (ip), vehicle: other): 0 of 6

CCNC(=O)N(CC)N=O
T/C (dose: 400.0 mg/kg/injection, schedule: Q01DX001 (ip), vehicle: saline): 144 % of control
survivor count (dose: 600.0 mg/kg/injection, schedule: Q01DX001 (ip), vehicle: saline): 6 of 6
survivor count (dose: 800.0 mg/kg/injection, schedule: Q01DX001 (ip), vehicle: saline): 2 of 6
survivor count (dose: 1000.0 mg/kg/injection, schedule: Q01DX001 (ip), vehicle: saline): 0 of 6

O=C(O)Cc1ccc2[nH]c3c(c2c1)CCCC3
survivor count (dose: 400.0 mg/kg/injection, schedule: Q01DX001 (ip), vehicle: steroid suspending solution): 2 of 6

CCN(CC)CCN(C(=S)Nc1ccccc1)c1ccccc1
survivor count (dose: 100.0 mg/kg/injection, schedule: Q01DX009 (ip), vehicle: Klucel (hydroxypropylcellulose) (HPC)): 3 of 6
survivor count [7]: 0 of 6
survivor count (dose: 400.0 mg/kg/injection, schedule: Q01DX009 (ip), vehicle: Klucel (hydroxypropylcellulose) (HPC)): 0 of 6

O=[N+]([O-])c1ccc(C=Nc2cccc3ncccc23)s1
survivor count (dose: 400.0 mg/kg/injection, schedule: Q04DX003 (ip), vehicle: Klucel (hydroxypropylcellulose) (HPC)): 0 of 6
